For three substances, binding results are on record in article PMC5629210.

Sequences of proteins named here, by UniProt entry; tags and fusion partners are left off. A change or cut given only in a name is not applied to a line headed by its entry. A line that says so, or that is headed by a name, gives the form on record, which may keep a tag or linker.
UniProt Q7Z6B7: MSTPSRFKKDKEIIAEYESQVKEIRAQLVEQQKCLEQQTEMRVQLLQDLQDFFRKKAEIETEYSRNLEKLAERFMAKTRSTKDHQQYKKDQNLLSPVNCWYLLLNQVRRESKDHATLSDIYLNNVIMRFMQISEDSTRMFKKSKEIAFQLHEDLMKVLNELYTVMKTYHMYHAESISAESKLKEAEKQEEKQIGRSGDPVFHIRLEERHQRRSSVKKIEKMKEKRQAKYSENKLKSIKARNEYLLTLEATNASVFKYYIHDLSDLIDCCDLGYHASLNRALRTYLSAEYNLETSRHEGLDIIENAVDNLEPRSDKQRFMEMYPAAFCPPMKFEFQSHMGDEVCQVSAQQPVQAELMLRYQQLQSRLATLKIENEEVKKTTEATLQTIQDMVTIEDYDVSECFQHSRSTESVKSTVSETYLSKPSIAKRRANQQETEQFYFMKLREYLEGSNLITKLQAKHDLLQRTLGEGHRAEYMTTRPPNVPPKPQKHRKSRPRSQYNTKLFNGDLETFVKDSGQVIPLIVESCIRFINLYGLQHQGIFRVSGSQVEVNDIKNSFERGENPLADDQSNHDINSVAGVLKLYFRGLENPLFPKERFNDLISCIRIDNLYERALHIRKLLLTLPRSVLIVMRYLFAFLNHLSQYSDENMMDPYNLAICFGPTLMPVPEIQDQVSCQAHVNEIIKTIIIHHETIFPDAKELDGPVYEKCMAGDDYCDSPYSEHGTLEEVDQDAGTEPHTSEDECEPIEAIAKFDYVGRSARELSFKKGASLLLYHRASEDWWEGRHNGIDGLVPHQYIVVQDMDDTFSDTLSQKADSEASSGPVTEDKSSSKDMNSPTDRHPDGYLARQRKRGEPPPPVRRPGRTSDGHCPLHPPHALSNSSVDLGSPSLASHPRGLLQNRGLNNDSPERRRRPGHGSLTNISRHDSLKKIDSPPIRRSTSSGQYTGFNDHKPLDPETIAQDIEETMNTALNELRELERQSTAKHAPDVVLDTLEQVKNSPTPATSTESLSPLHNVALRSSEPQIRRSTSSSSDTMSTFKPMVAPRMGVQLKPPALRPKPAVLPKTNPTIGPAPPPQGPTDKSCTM
UniProt Q14247: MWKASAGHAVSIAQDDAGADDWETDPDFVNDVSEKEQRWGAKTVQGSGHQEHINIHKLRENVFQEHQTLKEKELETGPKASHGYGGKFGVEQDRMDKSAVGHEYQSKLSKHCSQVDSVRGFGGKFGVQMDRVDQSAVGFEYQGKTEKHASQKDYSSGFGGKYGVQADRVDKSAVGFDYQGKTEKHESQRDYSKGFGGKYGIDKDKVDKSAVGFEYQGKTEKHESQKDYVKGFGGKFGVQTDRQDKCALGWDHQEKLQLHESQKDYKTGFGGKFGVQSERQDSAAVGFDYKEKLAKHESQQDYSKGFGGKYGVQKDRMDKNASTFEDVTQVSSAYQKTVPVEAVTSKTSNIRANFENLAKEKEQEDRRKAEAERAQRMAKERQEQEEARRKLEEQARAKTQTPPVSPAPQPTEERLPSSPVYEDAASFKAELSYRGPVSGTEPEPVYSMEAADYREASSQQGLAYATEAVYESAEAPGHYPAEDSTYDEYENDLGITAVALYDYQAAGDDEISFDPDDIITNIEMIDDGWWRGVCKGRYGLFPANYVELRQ
3YF cortactin-mCherry (Q14247, form named): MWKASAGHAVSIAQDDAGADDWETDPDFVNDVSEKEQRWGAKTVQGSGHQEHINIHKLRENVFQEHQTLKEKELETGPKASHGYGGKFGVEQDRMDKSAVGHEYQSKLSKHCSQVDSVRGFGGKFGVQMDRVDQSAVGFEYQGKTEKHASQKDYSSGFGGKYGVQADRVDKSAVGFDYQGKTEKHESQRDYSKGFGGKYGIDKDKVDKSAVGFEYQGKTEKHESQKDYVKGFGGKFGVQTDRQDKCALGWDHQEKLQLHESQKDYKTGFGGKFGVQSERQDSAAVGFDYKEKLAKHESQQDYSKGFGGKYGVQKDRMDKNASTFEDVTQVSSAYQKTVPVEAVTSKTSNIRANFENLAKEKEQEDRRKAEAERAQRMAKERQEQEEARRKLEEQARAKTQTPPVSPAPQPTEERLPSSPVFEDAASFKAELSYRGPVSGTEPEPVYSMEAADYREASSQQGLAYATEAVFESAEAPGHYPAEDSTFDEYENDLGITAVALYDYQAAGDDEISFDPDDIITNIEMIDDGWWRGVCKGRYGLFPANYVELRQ

No constants are given. Whether binding was seen depends on the method and setting. In cells and extracts the contact can be indirect. Some results given as binding are weak or reduced against the parent protein; the word gives no strength.

Test [1] has as its target SRGAP1-GFP (SLIT-ROBO Rho GTPase activating protein 1 fused to GFP) (human) (UniProt Q7Z6B7). The experiment in a line: co-IP; GFP-trap of HEK293T cells co-transfected with SRGAP1-GFP and WT/3YF/3YD cortactin-mCherry; blots with anti-GFP and anti-mCherry antibodies.
Test [2] deals with cortactin-GFP (untreated) (human) (UniProt Q14247). Nature of the test: pull-down; cortactin-GFP affinity-isolated on GFP-trap beads from HEK293T cells (untreated, lambda phosphatase-treated, or from cells co-transfected with Src Y527F), beads incubated with lysates of cortactin-siRNA Caco-2 cells; SRGAP1 detected by blot; only the target purified.

As to “WT cortactin-mCherry (from UniProt Q14247 1-550)”, the binding result in test [1] was “binds”.

For “3YF cortactin-mCherry (from UniProt Q14247 1-550)”, the binding result in test [1] was “binds”.

For “SRGAP1 (endogenous, Caco-2) (from UniProt Q7Z6B7 1-1085)”, the binding result in test [2] is “binds”.
